# From PubChem BioAssay AID1487 (National Center for Advancing Translational Sciences (NCATS), 2009)
# This is one part of the list. Further columns of the screen follow, without active or inactive calls. Compounds called inactive in the main read-out are mostly missing here. Potencies come from curve fits of mixed quality, noted in brackets.
# Assay: qHTS Assay for Modulators of Lamin A Splicing
# Settings: HeLa LMNA splicing GFP/RFP minigene ratio, 48 h
# Summary of the method: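 S3 HeLa stable clones carrying a lamin A-EGFP splicing minigene plus DsRed2 were seeded at 600 cells/well in Opti-MEM with 2% FBS, pin-dosed and incubated 48 h at 37°C. Acumen cytometry (488 nm) gave the GFP/RFP total-intensity ratio.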
# [1] = measured here: GFP splicing reporter channel
# [2] = measured here: RFP viability control channel
SMILES,AC50 [1],AC50 [2]
Cc1sc2nc(CN(Cc3cccs3)C(=O)NC3CCCCC3)[nH]c(=O)c2c1C,"1.41 µM [rising, full curve, poor fit]","17.8 µM [rising, partial curve]"
COC(=O)c1ccc2c(c1)N(Cc1ccccc1F)C(=O)c1ccccc1S2=O (stereo not drawn),,"35.5 µM [rising, single point]"
Cc1ccc2cc(CCNC(=O)c3cccc([N+](=O)[O-])c3)c(=O)[nH]c2c1,"10 µM [falling, partial curve]","0.316 µM [falling, full curve, poor fit]"
Cc1ccc2nc(N(Cc3cccnc3)C(=O)C3CCCCC3)sc2c1,"0.1 µM [rising, single point]",
COc1cc(OC)c(NC(=O)CCn2cnc3onc(-c4ccc(F)cc4)c3c2=O)cc1Cl,,"0.00447 µM [falling, full curve, poor fit]"
CCOc1ccc(NC2c3ccccc3C(=O)N2Cc2ccco2)cc1 (stereo not drawn),"31.6 µM [rising, single point]","35.5 µM [rising, single point]"
O=C(Nc1cnn(Cc2ccc(F)cc2)c1)c1noc2c1CCCC2,"0.0631 µM [rising, full curve]","0.0316 µM [rising, full curve, poor fit]"
COc1ccc(CCCc2nnc(SCC(=O)Nc3nccs3)n2C)cc1C,,"14.1 µM [rising, single point]"
Cc1nnsc1C(=O)Nc1ccccc1,"14.1 µM [falling, partial curve, poor fit]","22.4 µM [falling, partial curve, poor fit]"
CCN(CC)c1ccc(/C=N/Nc2nc(C)cc(C)n2)c(O)c1,,"25.1 µM [rising, partial curve]"
O=C1N/C(=C/c2ccc(N3CCOCC3)o2)C(=O)N1c1cccc(Cl)c1,"0.355 µM [falling, partial curve, poor fit]","11.2 µM [rising, partial curve]"
Cc1ccc2nc(NC(=O)CNS(=O)(=O)c3ccc(Br)s3)sc2c1,"10 µM [rising, partial curve]","12.6 µM [rising, partial curve]"
N#Cc1cc2ccccc2nc1SCC(=O)Nc1ccccc1N1CCOCC1,"12.6 µM [rising, partial curve]","15.8 µM [rising, partial curve]"
COc1ccc(NS(=O)(=O)c2cccc(NC(=O)CCC(=O)c3cccs3)c2)cc1,"3.16 µM [rising, partial curve, poor fit]","20 µM [rising, partial curve, poor fit]"

# Part of the list above in order of number of heavy atoms, low to high.
SMILES,AC50 [1],AC50 [2]
O=C(Nc1cnn(Cc2ccc(F)cc2)c1)c1noc2c1CCCC2,"0.0631 µM [rising, full curve]","0.0316 µM [rising, full curve, poor fit]"
O=C1N/C(=C/c2ccc(N3CCOCC3)o2)C(=O)N1c1cccc(Cl)c1,"0.355 µM [falling, partial curve, poor fit]","11.2 µM [rising, partial curve]"
COC(=O)c1ccc2c(c1)N(Cc1ccccc1F)C(=O)c1ccccc1S2=O (stereo not drawn),,"35.5 µM [rising, single point]"
